From article PMC11101681
Results are given in words; binding and its absence hold for the method and conditions named. In cells and extracts the contact can be indirect. A yes stands for co-enrichment or nearness to the bait. Other partners may have been found. For some of these results: Where a sequence is shown, tags or fusion partners need not be part of it.

The chains behind the UniProt entries cited, without tags or fusion partners.
UniProt Q9NVP2: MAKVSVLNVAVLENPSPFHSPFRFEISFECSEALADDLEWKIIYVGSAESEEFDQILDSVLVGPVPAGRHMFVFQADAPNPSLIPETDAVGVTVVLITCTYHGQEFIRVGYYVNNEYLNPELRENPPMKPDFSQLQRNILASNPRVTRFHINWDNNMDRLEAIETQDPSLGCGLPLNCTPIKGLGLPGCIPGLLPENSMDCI
UniProt P27694: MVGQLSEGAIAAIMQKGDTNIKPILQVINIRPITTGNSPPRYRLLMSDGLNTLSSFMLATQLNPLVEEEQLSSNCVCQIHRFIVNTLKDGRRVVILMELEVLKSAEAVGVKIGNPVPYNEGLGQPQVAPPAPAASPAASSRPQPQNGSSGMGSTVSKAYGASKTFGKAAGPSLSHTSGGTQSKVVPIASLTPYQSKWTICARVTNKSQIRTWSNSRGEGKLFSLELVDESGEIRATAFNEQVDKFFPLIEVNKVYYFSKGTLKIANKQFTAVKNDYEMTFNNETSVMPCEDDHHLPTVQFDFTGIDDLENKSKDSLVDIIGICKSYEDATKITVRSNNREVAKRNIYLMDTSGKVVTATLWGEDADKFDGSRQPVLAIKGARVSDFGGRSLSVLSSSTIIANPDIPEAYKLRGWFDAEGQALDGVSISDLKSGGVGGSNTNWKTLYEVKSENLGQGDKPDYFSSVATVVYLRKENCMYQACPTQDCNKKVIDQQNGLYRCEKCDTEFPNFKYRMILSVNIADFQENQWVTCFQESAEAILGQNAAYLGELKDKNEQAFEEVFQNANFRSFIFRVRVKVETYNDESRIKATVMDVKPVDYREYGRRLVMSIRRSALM
UniProt Q9UKI8: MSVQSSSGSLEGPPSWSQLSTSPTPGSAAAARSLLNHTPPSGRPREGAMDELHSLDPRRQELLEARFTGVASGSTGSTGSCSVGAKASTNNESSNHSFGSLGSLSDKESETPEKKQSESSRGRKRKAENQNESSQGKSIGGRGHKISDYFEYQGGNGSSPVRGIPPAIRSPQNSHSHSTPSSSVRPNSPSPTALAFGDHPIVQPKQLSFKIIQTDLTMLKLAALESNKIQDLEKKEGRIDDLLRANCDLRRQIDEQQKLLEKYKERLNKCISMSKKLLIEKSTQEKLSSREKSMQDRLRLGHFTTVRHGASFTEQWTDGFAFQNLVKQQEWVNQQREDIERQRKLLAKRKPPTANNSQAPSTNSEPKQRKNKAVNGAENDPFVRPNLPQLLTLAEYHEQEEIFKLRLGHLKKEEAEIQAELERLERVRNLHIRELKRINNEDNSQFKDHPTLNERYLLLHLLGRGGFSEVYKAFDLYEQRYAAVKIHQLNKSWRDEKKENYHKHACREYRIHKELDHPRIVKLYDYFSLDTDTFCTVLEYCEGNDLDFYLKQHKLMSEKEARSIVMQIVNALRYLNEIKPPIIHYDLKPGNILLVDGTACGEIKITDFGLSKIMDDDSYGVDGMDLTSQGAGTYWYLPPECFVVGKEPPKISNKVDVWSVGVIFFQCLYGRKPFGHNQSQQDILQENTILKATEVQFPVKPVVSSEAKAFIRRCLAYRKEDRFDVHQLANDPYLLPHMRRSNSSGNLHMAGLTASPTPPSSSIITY
UniProt Q9BRT9: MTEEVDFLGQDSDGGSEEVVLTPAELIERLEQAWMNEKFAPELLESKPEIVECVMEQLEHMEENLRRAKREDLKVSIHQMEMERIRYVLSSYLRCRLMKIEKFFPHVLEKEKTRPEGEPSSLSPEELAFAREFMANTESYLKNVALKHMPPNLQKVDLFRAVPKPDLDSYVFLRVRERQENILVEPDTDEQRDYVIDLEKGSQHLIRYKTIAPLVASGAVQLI
UniProt P39687: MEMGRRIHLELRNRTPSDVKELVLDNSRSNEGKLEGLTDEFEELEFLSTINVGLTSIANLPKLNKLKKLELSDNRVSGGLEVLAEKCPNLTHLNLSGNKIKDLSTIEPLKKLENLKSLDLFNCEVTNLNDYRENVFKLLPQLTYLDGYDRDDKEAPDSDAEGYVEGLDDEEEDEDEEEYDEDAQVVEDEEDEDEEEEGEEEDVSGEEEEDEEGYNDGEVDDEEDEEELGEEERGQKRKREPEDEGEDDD
UniProt P09884: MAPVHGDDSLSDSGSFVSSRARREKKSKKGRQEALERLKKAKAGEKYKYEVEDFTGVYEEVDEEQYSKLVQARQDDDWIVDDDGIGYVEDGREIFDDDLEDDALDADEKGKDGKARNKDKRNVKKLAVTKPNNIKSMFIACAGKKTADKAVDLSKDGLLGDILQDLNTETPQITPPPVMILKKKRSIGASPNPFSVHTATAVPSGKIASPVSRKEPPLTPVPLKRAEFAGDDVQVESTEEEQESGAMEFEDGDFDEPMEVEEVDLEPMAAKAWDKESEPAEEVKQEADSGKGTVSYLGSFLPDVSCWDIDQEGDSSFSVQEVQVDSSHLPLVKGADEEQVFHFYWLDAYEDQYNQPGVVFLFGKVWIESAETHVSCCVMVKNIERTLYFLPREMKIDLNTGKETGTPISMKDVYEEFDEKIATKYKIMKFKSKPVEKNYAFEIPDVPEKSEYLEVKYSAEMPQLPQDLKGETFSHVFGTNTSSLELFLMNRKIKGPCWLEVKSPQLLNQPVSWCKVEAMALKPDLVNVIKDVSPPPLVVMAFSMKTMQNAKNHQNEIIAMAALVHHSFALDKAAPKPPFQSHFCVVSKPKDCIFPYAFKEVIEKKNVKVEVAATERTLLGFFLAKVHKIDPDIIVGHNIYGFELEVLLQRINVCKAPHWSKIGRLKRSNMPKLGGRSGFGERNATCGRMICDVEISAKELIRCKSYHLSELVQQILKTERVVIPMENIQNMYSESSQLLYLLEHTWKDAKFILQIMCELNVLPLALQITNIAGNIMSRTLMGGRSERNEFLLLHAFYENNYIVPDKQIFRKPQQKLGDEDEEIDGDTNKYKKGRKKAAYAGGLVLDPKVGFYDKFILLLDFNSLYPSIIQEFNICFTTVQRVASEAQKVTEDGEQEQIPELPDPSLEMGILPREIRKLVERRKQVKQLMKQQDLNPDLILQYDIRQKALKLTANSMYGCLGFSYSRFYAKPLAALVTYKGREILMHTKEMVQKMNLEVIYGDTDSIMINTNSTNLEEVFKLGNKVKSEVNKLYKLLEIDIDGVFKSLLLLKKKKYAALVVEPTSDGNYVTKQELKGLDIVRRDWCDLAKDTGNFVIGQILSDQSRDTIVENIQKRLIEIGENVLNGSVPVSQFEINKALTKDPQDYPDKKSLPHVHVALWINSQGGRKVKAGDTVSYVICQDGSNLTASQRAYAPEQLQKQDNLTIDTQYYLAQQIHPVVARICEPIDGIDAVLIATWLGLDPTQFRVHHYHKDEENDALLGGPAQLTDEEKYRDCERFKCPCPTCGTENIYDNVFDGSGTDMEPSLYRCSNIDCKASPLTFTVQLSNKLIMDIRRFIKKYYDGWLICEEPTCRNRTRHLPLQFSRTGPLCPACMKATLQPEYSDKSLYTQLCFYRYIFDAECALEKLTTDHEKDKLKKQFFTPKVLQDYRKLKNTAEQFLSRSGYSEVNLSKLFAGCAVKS
UniProt Q9HCK8: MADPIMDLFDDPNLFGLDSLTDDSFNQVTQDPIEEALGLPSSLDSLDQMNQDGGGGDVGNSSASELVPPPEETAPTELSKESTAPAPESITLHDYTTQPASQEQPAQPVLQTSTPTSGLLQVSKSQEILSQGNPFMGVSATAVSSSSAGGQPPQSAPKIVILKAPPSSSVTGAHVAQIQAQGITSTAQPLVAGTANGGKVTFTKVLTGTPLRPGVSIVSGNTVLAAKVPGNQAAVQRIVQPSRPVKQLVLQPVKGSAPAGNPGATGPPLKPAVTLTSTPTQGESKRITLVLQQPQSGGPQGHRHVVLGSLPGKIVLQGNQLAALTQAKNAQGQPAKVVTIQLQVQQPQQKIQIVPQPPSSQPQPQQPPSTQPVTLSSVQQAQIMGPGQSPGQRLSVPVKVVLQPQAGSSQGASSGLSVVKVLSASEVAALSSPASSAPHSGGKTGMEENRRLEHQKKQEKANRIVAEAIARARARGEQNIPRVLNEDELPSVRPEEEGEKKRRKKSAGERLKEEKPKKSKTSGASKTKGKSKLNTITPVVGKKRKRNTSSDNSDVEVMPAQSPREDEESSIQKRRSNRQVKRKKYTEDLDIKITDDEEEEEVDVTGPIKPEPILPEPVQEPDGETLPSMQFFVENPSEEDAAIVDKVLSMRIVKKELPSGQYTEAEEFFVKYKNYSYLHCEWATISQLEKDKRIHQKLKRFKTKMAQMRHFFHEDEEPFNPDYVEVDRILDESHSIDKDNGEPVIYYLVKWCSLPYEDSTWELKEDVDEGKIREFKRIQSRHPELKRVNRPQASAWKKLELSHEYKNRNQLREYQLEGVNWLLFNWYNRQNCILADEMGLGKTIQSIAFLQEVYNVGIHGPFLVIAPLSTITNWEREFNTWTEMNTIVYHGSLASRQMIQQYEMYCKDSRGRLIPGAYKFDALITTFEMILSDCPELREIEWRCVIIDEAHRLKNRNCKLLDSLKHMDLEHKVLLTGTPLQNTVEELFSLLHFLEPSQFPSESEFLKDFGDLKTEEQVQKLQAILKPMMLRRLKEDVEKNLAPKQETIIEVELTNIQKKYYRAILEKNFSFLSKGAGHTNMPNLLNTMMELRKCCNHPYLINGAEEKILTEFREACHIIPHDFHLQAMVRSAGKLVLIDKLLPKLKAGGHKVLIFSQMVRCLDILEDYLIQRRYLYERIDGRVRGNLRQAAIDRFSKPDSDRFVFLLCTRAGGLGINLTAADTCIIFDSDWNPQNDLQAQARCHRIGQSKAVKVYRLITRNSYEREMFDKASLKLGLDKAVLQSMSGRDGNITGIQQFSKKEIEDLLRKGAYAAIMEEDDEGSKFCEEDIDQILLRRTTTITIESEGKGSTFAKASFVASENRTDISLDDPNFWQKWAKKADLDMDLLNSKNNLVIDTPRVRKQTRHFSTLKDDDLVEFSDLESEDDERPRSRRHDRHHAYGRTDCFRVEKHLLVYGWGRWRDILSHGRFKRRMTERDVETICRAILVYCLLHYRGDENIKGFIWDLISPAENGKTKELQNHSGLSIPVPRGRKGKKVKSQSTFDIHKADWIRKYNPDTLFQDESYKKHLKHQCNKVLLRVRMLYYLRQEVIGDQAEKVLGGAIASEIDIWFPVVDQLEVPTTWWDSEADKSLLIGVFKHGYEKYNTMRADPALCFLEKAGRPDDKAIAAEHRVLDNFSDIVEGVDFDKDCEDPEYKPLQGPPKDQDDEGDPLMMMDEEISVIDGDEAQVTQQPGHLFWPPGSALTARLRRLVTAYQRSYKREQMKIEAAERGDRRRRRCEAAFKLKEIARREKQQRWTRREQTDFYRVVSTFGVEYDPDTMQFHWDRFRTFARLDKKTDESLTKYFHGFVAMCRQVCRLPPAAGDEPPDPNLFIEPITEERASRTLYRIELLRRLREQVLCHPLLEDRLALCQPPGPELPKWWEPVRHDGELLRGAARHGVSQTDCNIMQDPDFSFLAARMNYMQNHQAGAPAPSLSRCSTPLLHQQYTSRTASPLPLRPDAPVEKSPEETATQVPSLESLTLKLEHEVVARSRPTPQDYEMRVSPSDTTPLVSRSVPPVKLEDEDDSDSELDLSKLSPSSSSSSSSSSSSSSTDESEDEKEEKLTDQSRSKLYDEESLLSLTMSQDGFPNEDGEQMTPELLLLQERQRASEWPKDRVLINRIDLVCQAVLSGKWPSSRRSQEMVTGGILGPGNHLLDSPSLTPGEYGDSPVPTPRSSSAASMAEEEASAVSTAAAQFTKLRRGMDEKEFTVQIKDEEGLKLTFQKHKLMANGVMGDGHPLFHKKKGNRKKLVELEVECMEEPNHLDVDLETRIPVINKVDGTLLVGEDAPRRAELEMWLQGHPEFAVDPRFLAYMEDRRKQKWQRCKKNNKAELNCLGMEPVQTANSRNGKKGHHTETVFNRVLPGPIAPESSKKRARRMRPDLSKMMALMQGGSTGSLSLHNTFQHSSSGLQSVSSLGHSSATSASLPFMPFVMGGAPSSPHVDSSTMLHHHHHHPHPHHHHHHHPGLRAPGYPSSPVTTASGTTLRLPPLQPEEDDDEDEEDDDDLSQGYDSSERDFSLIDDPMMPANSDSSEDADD

Columns and labels:
Assay in all cases: proximity labelling; BioID2 fused N-terminally to the bait in stable HEK293 Flp-In T-REx cells; doxycycline 48 h, 50 uM biotin for the last 24 h, with or without 1 mM hydroxyurea for the last 24 h; lysis in 8 M urea, streptavidin sepharose, trypsin, LC-MS/MS; hits by SAINT score >=0.95 against the 293FT control and AvgSpec >=5
[1] = target: ASF1B (3xMyc-BioID2-ASF1B) (human (cDNA library of U2OS cells)) (UniProt Q9NVP2)
[2] = target: T1, WDHD1 (FLAG-BioID2 fusion bait) (human (cDNA library of U2OS cells)) (UniProt O75717)
T1 sequence: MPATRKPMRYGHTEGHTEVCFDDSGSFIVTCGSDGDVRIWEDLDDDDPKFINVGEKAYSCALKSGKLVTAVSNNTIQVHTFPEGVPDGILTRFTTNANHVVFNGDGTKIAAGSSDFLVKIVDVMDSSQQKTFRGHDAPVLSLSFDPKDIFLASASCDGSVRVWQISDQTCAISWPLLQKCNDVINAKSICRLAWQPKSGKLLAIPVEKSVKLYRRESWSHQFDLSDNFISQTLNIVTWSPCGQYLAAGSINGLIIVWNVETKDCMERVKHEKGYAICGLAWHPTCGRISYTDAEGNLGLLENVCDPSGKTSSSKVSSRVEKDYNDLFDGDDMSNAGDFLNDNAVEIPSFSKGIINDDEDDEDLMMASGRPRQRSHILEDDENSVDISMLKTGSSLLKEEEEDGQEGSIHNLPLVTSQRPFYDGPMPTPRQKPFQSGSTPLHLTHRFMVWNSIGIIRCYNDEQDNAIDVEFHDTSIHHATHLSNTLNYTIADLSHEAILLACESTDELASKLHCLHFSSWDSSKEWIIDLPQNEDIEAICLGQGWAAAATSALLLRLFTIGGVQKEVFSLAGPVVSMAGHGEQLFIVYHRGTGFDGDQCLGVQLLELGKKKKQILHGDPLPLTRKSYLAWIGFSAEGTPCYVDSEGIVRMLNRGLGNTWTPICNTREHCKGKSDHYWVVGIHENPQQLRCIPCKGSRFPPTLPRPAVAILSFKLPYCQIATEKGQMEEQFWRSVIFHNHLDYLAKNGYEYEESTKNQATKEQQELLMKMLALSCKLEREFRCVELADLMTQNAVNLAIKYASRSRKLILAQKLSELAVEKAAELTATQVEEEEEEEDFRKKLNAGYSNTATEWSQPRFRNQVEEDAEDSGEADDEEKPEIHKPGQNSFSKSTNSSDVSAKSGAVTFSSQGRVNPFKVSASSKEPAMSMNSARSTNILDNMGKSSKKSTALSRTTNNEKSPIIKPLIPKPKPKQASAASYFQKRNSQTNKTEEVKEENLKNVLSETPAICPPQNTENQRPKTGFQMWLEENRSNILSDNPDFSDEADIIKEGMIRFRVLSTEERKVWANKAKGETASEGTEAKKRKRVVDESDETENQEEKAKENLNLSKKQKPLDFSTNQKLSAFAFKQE

[3] = target: T2, GINS1 (FLAG-BioID2 fusion bait) (human (cDNA library of U2OS cells)) (UniProt Q14691)
T2 sequence: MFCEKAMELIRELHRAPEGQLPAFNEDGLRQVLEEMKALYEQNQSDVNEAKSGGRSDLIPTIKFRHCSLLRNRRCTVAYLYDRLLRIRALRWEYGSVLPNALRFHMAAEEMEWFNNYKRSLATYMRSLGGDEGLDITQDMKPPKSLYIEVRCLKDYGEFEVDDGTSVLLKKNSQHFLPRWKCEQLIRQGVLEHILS

[4] = target: T3, GINS2 (Flag-BIOID2-GINS2) (human (cDNA library of U2OS cells)) (UniProt Q9Y248)
T3 sequence: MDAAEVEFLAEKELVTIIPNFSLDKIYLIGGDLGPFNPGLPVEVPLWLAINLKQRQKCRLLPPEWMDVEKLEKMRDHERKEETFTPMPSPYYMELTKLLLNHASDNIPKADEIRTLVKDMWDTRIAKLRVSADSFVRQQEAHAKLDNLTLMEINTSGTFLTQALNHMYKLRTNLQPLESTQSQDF

[5] = target: T4, RPA4 (3MYC-BioID2 fusion bait) (UniProt Q13156)
T4 sequence: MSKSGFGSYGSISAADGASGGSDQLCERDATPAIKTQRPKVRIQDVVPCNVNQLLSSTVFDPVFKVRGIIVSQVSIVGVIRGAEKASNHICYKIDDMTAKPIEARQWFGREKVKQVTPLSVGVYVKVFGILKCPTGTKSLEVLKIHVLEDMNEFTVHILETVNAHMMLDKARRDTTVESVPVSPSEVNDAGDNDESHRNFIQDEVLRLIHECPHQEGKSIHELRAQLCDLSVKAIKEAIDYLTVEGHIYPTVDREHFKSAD

[6] = target: T5, POLE4 (Flag-BIOID2-POLE4) (human (cDNA library of U2OS cells)) (UniProt Q9NR33)
T5 sequence: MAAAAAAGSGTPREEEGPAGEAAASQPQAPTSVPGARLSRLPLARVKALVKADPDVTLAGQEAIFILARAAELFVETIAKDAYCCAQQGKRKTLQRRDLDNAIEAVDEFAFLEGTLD

[7] = target: RPA1 (3MYC-BioID2 fusion bait) (UniProt P27694)

## TLK1 kinase (from UniProt Q9UKI8 1-766)
[1]
  binding: binds

## GINS4 (FLAG-BioID2 fusion bait) (from UniProt Q9BRT9 1-223)
[2]
  binding: binds
[3]
  binding: binds
[4]
  binding: binds

## TP53 (from UniProt P04637 1-393)
[5]
  binding: binds

## BAZ1A (from UniProt Q9NRL2 1-1556)
[6]
  binding: binds

## Acidic leucine-rich nuclear phosphoprotein 32 family member A (ANP32A) (from UniProt P39687 1-249)
[6]
  binding: binds

## POLA1, catalytic subunit of Pol alpha (from UniProt P09884 1-1462)
[2]
  binding: binds
[7]
  binding: binds

## CHD8 (from UniProt Q9HCK8 1-2581)
[1]
  binding: binds
